# Assay results taken from PMC12370185.
# The other results are listed elsewhere or left out. For part of these data: At the low end of the ranking, values are background and their order means little.
# Assays:
# Details in all cases: 10 mM Tris-Cl pH 7.5, 50 mM NaCl, 1 mM DTT, 0.25 mg/ml BSA, 2 mM MgCl2, 0.025% Nonidet P-40, 5% glycerol; 28 nM nucleosome library; 10 min on ice then 30 min …; high values mean tight binding; double strand, one strand shown
# KLF4 + histone octamer = assay: EMSA with sequencing
# SOX2 + histone octamer [1] = assay: EMSA with sequencing
# [2] = system: c-MYC + MAX + histone octamer; assay: EMSA with sequencing
# OCT4 + histone octamer [3] = assay: Pioneer-seq (competitive nucleosome EMSA with sequencing)
# OCT4 + histone octamer [4] = assay: EMSA with sequencing
# SOX2 + histone octamer [5] = assay: Pioneer-seq (competitive nucleosome EMSA with sequencing)
Sequence,binding signal (log2 relative supershift) (KLF4 + histone octamer),binding signal (log2 relative supershift) (SOX2 + histone octamer [1]),binding signal (log2 relative supershift) [2],binding signal (log2 relative supershift) (OCT4 + histone octamer [3]),binding signal (log2 relative supershift) (OCT4 + histone octamer [4]),binding signal (log2 relative supershift) (SOX2 + histone octamer [5])
GATGGACCCTATACGCGGCACTAAAATACACAGCATCCCACCTTAAATCTTACTCAAGGGAGTTAATCCTATCGCCCATATGTGCATAAGACCAGAAGAATGGCTAATCTCCACCCCTTGCCTCCTTACAATACTAAACTCCCCACCCAGGGAGGAGCTTATTCACCATTTTGTTATCATGCCATGTGTGTACTACCATGATTTCTCACTTGCCAGTCGGATAGTGTTCC,1.42,0.355,0.17,-0.507,–,–
GATGGACCCTATACGCGGCCTGAGGCCAGAAGGGGCCACTTTGGGCTAATTAGAACCACTGAGCAGTCTGAAGACTTCAATTATGCACATGGCAGGACAGTGGGTGCCTCCCCACGTGGGTGGGAGATTACTGCCGCTGGCCGGGCTGTCGCTCTCATGCAAAATATTAAGAAAAGGCAGGGCCCACAGCAATTCTCATCTGGCTGAAATTGCCAGTCGGATAGTGTTCC,1.68,0.149,0.491,-0.328,–,–
GATGGACCCTATACGCGGCGGAAACAAGGCATTGAGACTGGTTCTAATCCACTGTCAGTTGGGTGAGGACTCAGAGCAAGCCATGACTTGCAGCTCAGACCTTCTGGCTCAATGCAGAGAGGCCCGAGTTGGAGGAACAGGGTACTAAGTGATGGGATGGAGGAATGAGGGCAGTGGGGAGCCTAGCGAGGCAGCTTGACAGGGAAAATATGCCAGTCGGATAGTGTTCC,1.8,0.112,0.12,-0.251,–,–
GATGGACCCTATACGCGGCCTGTTTGTTTAAGGCAGCGTATGGCTCTGTCGTTCAGGGTGGAGTGCAGTGGCGCAATCATGACTCACTGCAGCCTTGAACTCCTGAATGCCGCCTTGAATTCCTGGATTCCAGCGACTCTCCCACCTCAACCTCCTGAGTAGCTGAGACCAAAGGCACGTGCCACACTCCCGGCTAATTTATTTTTATTTTGCCAGTCGGATAGTGTTCC,1.44,0.193,0.616,-0.205,–,–
GATGGACCCTATACGCGGCCCAGGCTAGTGAGGAAAATGAGGGAATGAGAAAGGAGGATGAGGAGGGCTTTGAGGGTGATGAGTCAGATGCAGGCACAGCCTTGGTAGTGGGTTTTAGTCCGTGCTCTGAGATGCCCAGTTTTTCATGAGAAAGAAAAGCATGTATGCCCACCCAGAAGAATGATTGTTAAGACAGGCTAAGAATATTGATGCCAGTCGGATAGTGTTCC,2.32,1.48,0.376,-0.0385,–,–
GATGGACCCTATACGCGGCTTATCCCCTGGGTGGGTGTCTAATAAGCTCAGCACACCTCTGGATATCCTTCCTCCAGTCCACCTGTTTTTATACTCCTGTGCTCTCCTGCCTTTTCAAATGCCACACTTGTTCCACAGCCTTATCTGCCTCTCCCTCACCACCTTCAACCTTTCCCTATCTCGTGGCTCCTTTCCAGCAACAATTGAACATGCCAGTCGGATAGTGTTCC,2.28,0.905,0.811,-0.0921,–,–
GATGGACCCTATACGCGGCTAAGGAGGGGCTAGGGTGTGTCTTGGGGCAGAGCAAGAAAGAGACGTCCATCCACGTGGATAAAGACACACACAGACACACGATGGGCTTTGTCACACACAATGGTCTGTACTTTGTGACACACACCTCTACTCACCACACCCAGACACCGAAGGACACTCCACAGCCCAAGACGGAGACTAACACACCAGTGCCAGTCGGATAGTGTTCC,2.52,–,1.16,–,0.158,-0.205
GATGGACCCTATACGCGGCTAAACAAAATAGAAAAGGAAGACTGGGGATAAGCTCTTGTCTGAACTCTGTCTCATCTCTGTGGCTAGGAGTGGCCCGCCTTTCCAGGCTGCCCAGCAAGTCACAGCATGTAGCCTTCCCTTTTGGTTCAAGGGAAGTCTAGTTAAAATAAGGGCAAAGCTGTCCTAGAGAGAAAAGATGTGATGAGCAGGTGCCAGTCGGATAGTGTTCC,1.15,1.02,0.33,-0.313,–,–
GATGGACCCTATACGCGGCCAGGGCGCACGCCCATTCCCCAAGATAGAGGGGTGGGAGCCACGTGCCTAAAAGATTAGGGACTGGTTCCCTTTCTCAAGACGCCGAAGGGGAGACAATGAGGGGAAGGTTGGGTGCTGAGACCCTGCTCTAGGTGACTGGAGTAACGATGTCAATTCCGCCACACTACTGTGCCAGATGTGGCTGGGGAATGCCAGTCGGATAGTGTTCC,2.36,0.0995,1.05,-0.336,–,–
GATGGACCCTATACGCGGCATCCCTTCCCCACCTACCAGGCTTCCAGGGACACCCACGTGCAGGGACACACTCCTCCCAACACACACAGCCAGGATCACAGTGCCACACAGGTGTGTCCCACGTGCCACAGGAACCGAGGAATAGTGCACACTAACACATGCATGGAAATCCCACACCCATATGCAGACGCGTACACTCCTGGCTCTGAATGCCAGTCGGATAGTGTTCC,2.35,0.0439,0.81,-0.227,–,–
GATGGACCCTATACGCGGCCTGCCTGCCTCTGCCTTCTTGATCCTGATGACACCCAGGCCTGCAGCAAAAATCTCTGAGTATCGAAAGGCAAAGTCAGACAGAACAATGACACCAATACTGCATTATTCATCCATTCATATGCTCAGGCAGCTTGCATTTATTGAGTACCTTTGTATACAGCATTGAGCCAGCAGCTGTGAGAATCGCAATGCCAGTCGGATAGTGTTCC,1.94,0.525,0.562,-0.168,–,–
GATGGACCCTATACGCGGCGGGGGTGGGGTGGGGTGCCGTGCAGGGAGCCAAAGGCACTTAGATGGGCTTGCTGGGCCGAGGGTGGGTGGGCCAGTCACTGGGCTGGGGGTGGCTAAGGAACACAGACCCACCAGCCAGCCCTTCTTGGGAAGCTCTGGGGGGTTTCTGCTCAGACCTGCACTCCCCCGAGTGGAACCCCGAGTTCTGCCTGCCAGTCGGATAGTGTTCC,1.16,–,0.0761,–,1.19,–
GATGGACCCTATACGCGGCTGGTTCATGTTCTTTATTGAACACCTTACATGGGTATGGACAGGGCCTATGGGTGGGGCAAGGCAGCAATGACAGCCTCAGTGAAGTCATGGCAAGTAGCATAGCCACCCATGTCAGAGGTTCGAACCTGTGGGGGAGAATCATCATCATCCATGTGGCCTGGGCTCCATCCTAACAATCCCCATCACCACTGCCAGTCGGATAGTGTTCC,1.23,0.571,0.511,-0.969,–,–
GATGGACCCTATACGCGGCTGCATGCATTTCTGCTATTCAGCACTGCAAAGGTTGGTTATCACATTGAAAGCTCCATGACAAGAAGGAGCCAGGACAATCTGAAACCAAGCAGAATATGCAACTGAAAGAACATGCGCCTTGAAATCAGACCAAACCTGGGTTTGAATTCTGGGCTTGAACCCTGGTGCTGACATTTTTAGCTGTATCACTGCCAGTCGGATAGTGTTCC,0.799,0.148,0.0807,-0.259,–,–
GATGGACCCTATACGCGGCTATTTCCCTCTTCTATTCACTCTTCAATTCACTATAATCTGACTTCCACCCTCCACTGAAAACTGCTTTTGTCAAGGTCAGGTCATCTGTACTCTCCATGTGCACATCTAGTGGATACTTGACCTTGTGGCAGCATTTGACAGTTTGCCCCTCCCTCCTGGAATCTTGCTCCCGGCTCCTATGACACCATGTGCCAGTCGGATAGTGTTCC,1.81,1,0.784,-0.147,–,–
GATGGACCCTATACGCGGCGTTGTCTAGTTTGGTCTGGTCCAGTTTGGTTTGGTCTTGTCCAGTCCAGTCTTGTCTTGGAGTTTCACTCTTCCGCCCAGGCTAGAGTGAAGTTTCGGCATCTCAGCTCACTGCAACCTCCGCCCCTGAGTTCAGGCGATTCTCCTACGAGTAGCTGGGATTGTAGGCGCCTGCCACCACACCTGGGTAATTGCCAGTCGGATAGTGTTCC,2.41,0.119,0.227,-0.911,–,–
GATGGACCCTATACGCGGCGAGGCAGGTCCTGACAGGCCTGATTCTTGGGAGGATGGATGGCTCCAATTCTGGCCACTGTGACTGTGCCTGGGCCTGTTGGAGCTTGTTAGCTACCCCACCTCCCCTGAGCCAGGAGTCCGAGACTCAGGATGGGTAGGTGCTGGCTAGATACTAGTGAACTGAATAACCTCCCCCTGCAAGCTGCCCCCTGCCAGTCGGATAGTGTTCC,2.1,0.0962,0.342,-0.687,–,–
GATGGACCCTATACGCGGCTGCCAGGTGGTAATGAGCTCTGTGCACCCTACCTCAACTCCCTCAGCATCAGTGGAGACCACATGGGGAGCCAGGACTTCCACCCCCACCCCACCATAACTGGGTGCGTCTCCCCTTTCCCACCGGGGGTTGGATCAACGTTGGCCTAGAGATGAATCAGAAATCTTAGCAATGCCCAGTGGTTAAAAAGCTGCCAGTCGGATAGTGTTCC,1.66,1.27,0.374,-0.341,–,–
GATGGACCCTATACGCGGCCTGTCACTTTGTTGACGTTCCAGAGCCAGGCCTGGCTGCTGCGGCTCCCAGACCCGGTCCCAGGCATGTTGGGACACGGGCCGGCTGTGCTCTGTGGAATGTTCCCAGGCAGCAGGTCCACTTCCTGGGCTGCAGCCCTGGGTTCTGCTGATACCCCTTCTGTAGCAGACTTCTCCTGCCCTGTCCTCCAGTGCCAGTCGGATAGTGTTCC,0.846,0.017,0.281,-0.482,–,–
GATGGACCCTATACGCGGCGGAAAGCTTTGGCCAGTCAGCAAAGGCACGTTGGGACTTGCAGCATGTTGGCTGCATGTGAAGTTACATCCAGCCACAGTGAAGCGATCACTAAAAAGTTGAGTTCCTGGGAAACACGGTACACAGCATGAGGCGTCAGTAATGTGAGGAGTGTGTTCTTTAGAATGGTCAATAATGTTAGAATGATGGAGTGCCAGTCGGATAGTGTTCC,0.919,0.844,0.904,-0.176,–,–
GATGGACCCTATACGCGGCCGCAGAAAGTGTACGCGTCAGAGAGTGGAAAGGAGAAAACAGGTTCTGGGACGGCGACAGAGAAGGGAAGTCGTGTCGCCCAGAAAGGCTATACAATCTCCACCCTTCCCGTTTGTCCCTGCGACACCCTTTCACCCTCCTGTCCCTCCGGACCTGCAATTCTTCACACCCTCTGCAGCGCACAGGGTGCTTGCCAGTCGGATAGTGTTCC,1.28,0.35,0.197,-0.169,–,–
GATGGACCCTATACGCGGCCCCCTAACAAACAACTTTGCCTCAAAGACACCCAAACAACTGTGCTGAACATTTTCACCCTCCCTTCCTCCTTTCCTTCCCTTCTTCACACAGGATCAGACTTGCTTTGTGGTCTGATGGTTCTCCCGGCTTTATTCAGAGCCTTCTGTTTTCCCTCACACAGGTGTTTCCTCCTGATAAGTCATTACACTTGCCAGTCGGATAGTGTTCC,1.88,0.595,0.119,-0.452,–,–

# Rewritten bar-delimited: part of the list above
Sequence | binding signal (log2 relative supershift) (KLF4 + histone octamer) | binding signal (log2 relative supershift) (SOX2 + histone octamer [1]) | binding signal (log2 relative supershift) [2] | binding signal (log2 relative supershift) (OCT4 + histone octamer [3]) | binding signal (log2 relative supershift) (OCT4 + histone octamer [4]) | binding signal (log2 relative supershift) (SOX2 + histone octamer [5])
GATGGACCCTATACGCGGCCTGAGGCCAGAAGGGGCCACTTTGGGCTAATTAGAACCACTGAGCAGTCTGAAGACTTCAATTATGCACATGGCAGGACAGTGGGTGCCTCCCCACGTGGGTGGGAGATTACTGCCGCTGGCCGGGCTGTCGCTCTCATGCAAAATATTAAGAAAAGGCAGGGCCCACAGCAATTCTCATCTGGCTGAAATTGCCAGTCGGATAGTGTTCC | 1.68 | 0.149 | 0.491 | -0.328 | – | –
GATGGACCCTATACGCGGCCTGCCTGCCTCTGCCTTCTTGATCCTGATGACACCCAGGCCTGCAGCAAAAATCTCTGAGTATCGAAAGGCAAAGTCAGACAGAACAATGACACCAATACTGCATTATTCATCCATTCATATGCTCAGGCAGCTTGCATTTATTGAGTACCTTTGTATACAGCATTGAGCCAGCAGCTGTGAGAATCGCAATGCCAGTCGGATAGTGTTCC | 1.94 | 0.525 | 0.562 | -0.168 | – | –
GATGGACCCTATACGCGGCTGCATGCATTTCTGCTATTCAGCACTGCAAAGGTTGGTTATCACATTGAAAGCTCCATGACAAGAAGGAGCCAGGACAATCTGAAACCAAGCAGAATATGCAACTGAAAGAACATGCGCCTTGAAATCAGACCAAACCTGGGTTTGAATTCTGGGCTTGAACCCTGGTGCTGACATTTTTAGCTGTATCACTGCCAGTCGGATAGTGTTCC | 0.799 | 0.148 | 0.0807 | -0.259 | – | –
GATGGACCCTATACGCGGCGTTGTCTAGTTTGGTCTGGTCCAGTTTGGTTTGGTCTTGTCCAGTCCAGTCTTGTCTTGGAGTTTCACTCTTCCGCCCAGGCTAGAGTGAAGTTTCGGCATCTCAGCTCACTGCAACCTCCGCCCCTGAGTTCAGGCGATTCTCCTACGAGTAGCTGGGATTGTAGGCGCCTGCCACCACACCTGGGTAATTGCCAGTCGGATAGTGTTCC | 2.41 | 0.119 | 0.227 | -0.911 | – | –
